Source: article PMC11188874, “HDAC6 Inhibition Releases HR23B to Activate Proteasomes, Expand the Tumor Immunopeptidome and Amplify T-cell Antimyeloma Activity” (Cancer Research Communications, 2024)

Test system: proteasome ChT-like activity in RPMI-8226 cells
Assay: Cell-based high-throughput screen of proteasome ChT-like activity (LLVY-R110)
Set-up: species or system human
Conditions: 3 µmol/L, 21 hours, then LLVY-R110 18 hours

Nc1nc2ccc(OC(F)(F)F)cc2s1 [Riluzole]
Fold-Increase of proteasome ChT-like activity in the HTS: 1.3 fold
